Results are given in words; binding and its absence hold for the method and conditions named. In cells and extracts the contact can be indirect. Some binding calls cover weakened binding; strength is not graded here.

The target in the assay is T1, Wilms' tumor 1-associating protein (human (endogenous in HUVEC)) (UniProt Q15007).
T1 sequence: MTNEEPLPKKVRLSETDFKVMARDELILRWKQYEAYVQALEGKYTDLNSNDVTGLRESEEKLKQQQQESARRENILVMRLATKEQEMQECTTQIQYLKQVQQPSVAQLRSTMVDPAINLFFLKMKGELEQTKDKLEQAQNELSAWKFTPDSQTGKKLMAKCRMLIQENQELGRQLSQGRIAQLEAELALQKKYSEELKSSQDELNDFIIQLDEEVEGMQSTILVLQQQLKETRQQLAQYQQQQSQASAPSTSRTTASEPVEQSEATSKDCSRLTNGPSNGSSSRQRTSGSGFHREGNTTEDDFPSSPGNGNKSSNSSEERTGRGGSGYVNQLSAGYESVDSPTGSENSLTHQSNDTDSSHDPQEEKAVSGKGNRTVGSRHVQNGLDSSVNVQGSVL
Kind of assay: co-IP; immunoprecipitation and immunoblotting of CBLL1 and WTAP, in both directions (Fig. S5B); cells and conditions not told in the text shown. A general note: In western blotting, separated proteins are transferred to a membrane and probed.

B1: CBLL1 (protein, UniProt Q75N03 1-491)
chain: MDHTDNELQGTNSSGSLGGLDVRRRIPIKLISKQANKAKPAPRTQRTINRMPAKAPPGDEEGFDYNEEERYDCKGGELFANQRRFPGHLFWDFQINILGEKDDTPVHFCDKCGLPIKIYGRMIPCKHVFCYDCAILHEKKGDKMCPGCSDPVQRIEQCTRGSLFMCSIVQGCKRTYLSQRDLQAHINHRHMRAGKPVTRASLENVHPPIAPPPTEIPERFIMPPDKHHMSHIPPKQHIMMPPPPLQHVPHEHYNQPHEDIRAPPAELSMAPPPPRSVSQETFRISTRKHSNLITVPIQDDSNSGAREPPPPAPAPAHHHPEYQGQPVVSHPHHIMPPQQHYAPPPPPPPPISHPMPHPPQAAGTPHLVYSQAPPPPMTSAPPPITPPPGHIIAQMPPYMNHPPPGPPPPQHGGPPVTAPPPHHYNPNSLPQFTEDQGTLSPPFTQPGGMSPGIWPAPRGPPPPPRLQGPPSQTPLPGPHHPDQTRYRPYYQ
On to B1, for which the binding result was “binds”.
